Experiment: Adhesive force: overlapping pieces of muscle tissue glued with the polyurea system, tested by pulling
Design: key: ++: very good; +: good
Description: The time after which the polyurea system was no longer tacky (tack-free time) was measured by means of adhesion experiments using a glass rod. For this, the glass rod was brought into contact with the layer made of the polyurea system. If it no longer stayed stuck, the system was considered to be tack-free. Additionally, the adhesive force was determined by coating two pieces of muscle tissue (1=4 cm, h=0.3 cm, w=1 cm) at the ends 1 cm wide using the polyurea system and sticking them together so that they overlap. The adhesive force of the polyurea system was tested in each case by pulling.

[1] = polyurea system with Prepolymer A
[2] = polyurea system with Prepolymer B

CCOC(=O)CC(NCCCCNCCCNC(CC(=O)OCC)C(=O)OCC)C(=O)OCC (stereo not shown) [Curing agent 1, triethyl 4-oxo-3-oxa-7,11,16-triazaoctadecane-6,17,18-tricarboxylate]
Adhesive force [1]: ++ | Adhesive force [2]: +

CCOC(=O)CC(NCCCCCCNCCCCCCNC(CC(=O)OCC)C(=O)OCC)C(=O)OCC (stereo not shown) [Curing agent 2, triethyl 4-oxo-3-oxa-7,14,21-triazatricosane-6,22,23-tricarboxylate]
Adhesive force [1]: ++ | Adhesive force [2]: +

CCOC(=O)CC(NCCCNCCCNC(CC(=O)OCC)C(=O)OCC)C(=O)OCC (stereo not shown) [Curing agent 3, Triethyl 4-oxo-3-oxa-7,11,15-triazaheptadecane-6,16,17-tricarboxylate]
Adhesive force [1]: ++ | Adhesive force [2]: +

CCOC(=O)CC(NCCCC(C)CNC(CC(=O)OCC)C(=O)OCC)C(=O)OCC (stereo not shown) [Curing agent 6, tetraethyl 2,2′-[(2-methylpentane-1,5-diyl)diimino]dibutanedioate, reference compound]
Adhesive force [2]: +
